In article PMC6486830:
Read-outs that look alike come from different tables or passages of the source. These are yes or no findings as the source states them, for the method shown. In cells and extracts the contact can be indirect. Some results given as binding are weak or reduced against the parent protein; the word gives no strength.

By UniProt entry, the sequences of proteins in these tests, tags left out.
UniProt Q61103: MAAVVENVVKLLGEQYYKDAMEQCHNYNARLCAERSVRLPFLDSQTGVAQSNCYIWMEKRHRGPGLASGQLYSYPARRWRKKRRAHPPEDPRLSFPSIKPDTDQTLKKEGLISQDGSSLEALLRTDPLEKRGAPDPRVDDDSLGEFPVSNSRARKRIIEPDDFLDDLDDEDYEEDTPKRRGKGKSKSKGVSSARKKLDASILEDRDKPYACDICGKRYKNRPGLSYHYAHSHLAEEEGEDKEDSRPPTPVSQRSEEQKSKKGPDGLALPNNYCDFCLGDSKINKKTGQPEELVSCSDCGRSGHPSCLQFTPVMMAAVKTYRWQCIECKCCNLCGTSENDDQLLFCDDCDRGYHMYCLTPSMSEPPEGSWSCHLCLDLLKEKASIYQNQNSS
UniProt Q3TKT4: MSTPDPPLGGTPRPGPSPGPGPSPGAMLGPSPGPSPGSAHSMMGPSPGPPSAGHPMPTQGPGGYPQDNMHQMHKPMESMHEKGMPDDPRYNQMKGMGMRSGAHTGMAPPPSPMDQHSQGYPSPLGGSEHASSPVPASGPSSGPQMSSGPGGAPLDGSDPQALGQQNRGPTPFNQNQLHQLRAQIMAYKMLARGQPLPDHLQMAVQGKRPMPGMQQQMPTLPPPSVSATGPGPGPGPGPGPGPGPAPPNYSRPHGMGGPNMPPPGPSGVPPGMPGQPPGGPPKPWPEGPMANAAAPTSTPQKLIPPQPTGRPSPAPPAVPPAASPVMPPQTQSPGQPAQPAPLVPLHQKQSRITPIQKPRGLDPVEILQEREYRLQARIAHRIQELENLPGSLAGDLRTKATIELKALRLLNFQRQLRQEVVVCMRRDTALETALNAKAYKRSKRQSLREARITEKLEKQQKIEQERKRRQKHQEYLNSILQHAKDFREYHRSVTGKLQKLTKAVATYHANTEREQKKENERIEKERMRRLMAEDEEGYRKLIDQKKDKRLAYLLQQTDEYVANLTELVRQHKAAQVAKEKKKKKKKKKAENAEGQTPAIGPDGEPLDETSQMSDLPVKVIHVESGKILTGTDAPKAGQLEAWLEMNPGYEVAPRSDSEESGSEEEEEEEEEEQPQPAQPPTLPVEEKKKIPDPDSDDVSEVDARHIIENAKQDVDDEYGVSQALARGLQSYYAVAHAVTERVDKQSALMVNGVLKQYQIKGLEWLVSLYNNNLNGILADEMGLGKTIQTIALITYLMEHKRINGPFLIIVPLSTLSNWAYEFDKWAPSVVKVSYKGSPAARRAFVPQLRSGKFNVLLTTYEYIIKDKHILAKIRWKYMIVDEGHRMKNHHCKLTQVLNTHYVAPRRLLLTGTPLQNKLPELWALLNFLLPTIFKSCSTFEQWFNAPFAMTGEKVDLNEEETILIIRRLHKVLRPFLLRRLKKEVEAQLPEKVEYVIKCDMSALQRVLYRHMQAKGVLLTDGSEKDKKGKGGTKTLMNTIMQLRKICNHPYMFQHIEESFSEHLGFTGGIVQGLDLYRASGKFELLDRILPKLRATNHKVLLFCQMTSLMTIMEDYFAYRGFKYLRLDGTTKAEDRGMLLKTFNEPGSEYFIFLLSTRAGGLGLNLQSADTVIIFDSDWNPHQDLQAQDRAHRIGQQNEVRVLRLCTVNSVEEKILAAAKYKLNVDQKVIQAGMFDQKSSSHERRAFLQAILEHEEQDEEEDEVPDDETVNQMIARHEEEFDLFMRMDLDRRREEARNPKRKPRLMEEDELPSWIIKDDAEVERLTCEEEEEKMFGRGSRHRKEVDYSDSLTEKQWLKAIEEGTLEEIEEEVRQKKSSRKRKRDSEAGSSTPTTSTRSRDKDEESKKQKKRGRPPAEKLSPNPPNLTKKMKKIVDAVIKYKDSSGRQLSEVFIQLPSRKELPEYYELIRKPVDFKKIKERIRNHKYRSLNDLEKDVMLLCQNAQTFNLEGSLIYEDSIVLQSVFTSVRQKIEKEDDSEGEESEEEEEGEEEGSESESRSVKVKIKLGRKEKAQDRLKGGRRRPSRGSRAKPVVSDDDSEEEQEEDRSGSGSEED
UniProt P48432: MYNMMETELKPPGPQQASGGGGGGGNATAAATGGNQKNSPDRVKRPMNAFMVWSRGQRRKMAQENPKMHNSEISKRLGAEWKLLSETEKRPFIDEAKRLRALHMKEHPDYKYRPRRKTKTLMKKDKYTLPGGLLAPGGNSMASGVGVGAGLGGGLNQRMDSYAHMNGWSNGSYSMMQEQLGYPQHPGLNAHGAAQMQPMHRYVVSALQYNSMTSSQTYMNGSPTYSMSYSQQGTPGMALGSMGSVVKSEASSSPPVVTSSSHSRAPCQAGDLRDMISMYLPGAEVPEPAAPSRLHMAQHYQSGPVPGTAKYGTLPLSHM

B1: NANOG (protein, UniProt Q80Z64 1-305)
chain: MSVGLPGPHSLPSSEEASNSGNASSMPAVFHPENYSCLQGSATEMLCTEAASPRPSSEDLPLQGSPDSSTSPKQKLSSPEADKGPEEEENKVLARKQKMRTVFSQAQLCALKDRFQKQKYLSLQQMQELSSILNLSYKQVKTWFQNQRMKCKRWQKNQWLKTSNGLIQKGSAPVEYPSIHCSYPQGYLVNASGSLSMWGSQTWTNPTWSSQTWTNPTWNNQTWTNPTWSSQAWTAQSWNGQPWNAAPLHNFGEDFLQPYVQLQQNFSASDLEVNLEATRESHAHFSTPQALELFLNYSVTPPGEI

Columns and labels:
[1] = target: DPF2 (mouse (in E14 ESCs)) (UniProt Q61103); experiment: co-IP; ESC lysate in 1% NP40, 50mM Tris-HCl pH7.4, 150mM NaCl, 1mM EDTA; the indicated antibodies 1 hour, Protein G Dynabeads at 4°C overnight; three washes with lysis buffer; immunoblot
[2] = target: DPF2 (mouse (in E14 ESCs)) (UniProt Q61103); experiment: as above; remark: listed apart in the source

Molecule | binding [1] | binding [2]
BRG1 [SMARCA4] (from UniProt Q3TKT4 1-1613) | binds | 
SOX2 (from UniProt P48432 1-319) | no binding | 
B1 |  | no binding
